Data published in PMC12130528.
No constants are given. Whether binding was seen depends on the method and setting. Binding seen in cells or lysates may run through a third protein. Some binding calls cover weakened binding; strength is not graded here.

Sequences of proteins named here, by UniProt entry; tags and fusion partners are left off.
UniProt P49796: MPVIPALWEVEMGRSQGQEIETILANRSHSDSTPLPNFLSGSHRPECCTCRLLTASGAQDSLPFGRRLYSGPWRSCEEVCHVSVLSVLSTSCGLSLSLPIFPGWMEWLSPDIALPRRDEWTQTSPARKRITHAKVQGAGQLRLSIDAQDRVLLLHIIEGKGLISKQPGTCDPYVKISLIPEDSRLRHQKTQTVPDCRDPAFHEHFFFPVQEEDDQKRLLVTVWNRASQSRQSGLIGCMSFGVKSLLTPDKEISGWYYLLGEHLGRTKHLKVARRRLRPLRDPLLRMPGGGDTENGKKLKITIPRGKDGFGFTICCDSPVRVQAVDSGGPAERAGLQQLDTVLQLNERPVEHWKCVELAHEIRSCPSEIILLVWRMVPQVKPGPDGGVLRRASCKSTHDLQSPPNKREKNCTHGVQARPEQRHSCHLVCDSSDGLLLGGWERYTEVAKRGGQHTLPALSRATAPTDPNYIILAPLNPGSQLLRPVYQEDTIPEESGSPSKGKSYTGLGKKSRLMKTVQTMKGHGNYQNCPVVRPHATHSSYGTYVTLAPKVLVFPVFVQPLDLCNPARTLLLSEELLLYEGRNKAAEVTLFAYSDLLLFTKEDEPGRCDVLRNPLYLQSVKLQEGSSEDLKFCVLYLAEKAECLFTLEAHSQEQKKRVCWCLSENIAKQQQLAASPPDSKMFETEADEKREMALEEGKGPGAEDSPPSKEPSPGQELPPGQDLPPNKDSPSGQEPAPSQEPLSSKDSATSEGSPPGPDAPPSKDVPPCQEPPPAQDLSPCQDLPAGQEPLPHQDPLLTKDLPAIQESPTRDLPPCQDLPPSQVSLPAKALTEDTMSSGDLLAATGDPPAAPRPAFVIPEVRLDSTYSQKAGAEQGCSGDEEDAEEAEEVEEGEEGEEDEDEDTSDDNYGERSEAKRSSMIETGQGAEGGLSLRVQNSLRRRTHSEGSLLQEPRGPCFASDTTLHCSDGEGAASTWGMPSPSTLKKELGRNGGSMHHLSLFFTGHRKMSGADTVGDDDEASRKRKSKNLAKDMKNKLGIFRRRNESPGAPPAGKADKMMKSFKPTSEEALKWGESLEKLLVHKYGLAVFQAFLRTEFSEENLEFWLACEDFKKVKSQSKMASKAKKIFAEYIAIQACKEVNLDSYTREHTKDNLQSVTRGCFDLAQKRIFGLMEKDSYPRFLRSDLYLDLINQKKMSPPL

Target: T1, AT-rich interactive domain-containing protein 3B (ARID3B) (UniProt Q8IVW6)
T1 sequence: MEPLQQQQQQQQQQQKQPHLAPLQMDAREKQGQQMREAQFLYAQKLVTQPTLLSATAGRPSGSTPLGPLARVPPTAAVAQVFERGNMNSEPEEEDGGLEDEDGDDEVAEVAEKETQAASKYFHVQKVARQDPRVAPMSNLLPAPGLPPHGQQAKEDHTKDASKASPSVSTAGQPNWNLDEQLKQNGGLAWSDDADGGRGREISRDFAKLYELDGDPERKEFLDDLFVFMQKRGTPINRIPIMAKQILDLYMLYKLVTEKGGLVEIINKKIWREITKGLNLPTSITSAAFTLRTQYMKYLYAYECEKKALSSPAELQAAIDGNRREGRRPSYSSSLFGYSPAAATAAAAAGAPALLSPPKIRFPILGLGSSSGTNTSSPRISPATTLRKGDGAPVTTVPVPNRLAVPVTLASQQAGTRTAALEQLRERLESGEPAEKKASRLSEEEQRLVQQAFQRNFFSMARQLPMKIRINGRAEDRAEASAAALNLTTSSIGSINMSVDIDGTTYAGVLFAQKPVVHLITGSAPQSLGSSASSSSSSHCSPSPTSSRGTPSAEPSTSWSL
Assay: co-IP; SKOV3 and OVCAR8 cell lysates (IP lysis buffer); 5 ug antibody conjugated to magnetic beads; beads washed three times; eluate analysed by Western blot; precipitating antibody not stated

binding: binds
Substance: regulator of G protein signaling 3 (RGS3) (from UniProt P49796 1-1198)
